Like-named read-outs stand apart in the source and are kept apart here. Results are given in words; binding and its absence hold for the method and conditions named. Binding seen in cells or lysates may run through a third protein. Some entries that bind do so weakly or less than the wild type.
Columns and labels:
Test in all cases: pull-down
GST-Rab8a [1] = biological target: GST-Rab8a (UniProt P55258)
GST-Rab8a [2] = biological target: GST-Rab8a (UniProt P55258); remark: listed apart in the source
[3] = biological target: GST-fusion protein of the Rab binding domain of OCRL (amino acids 539-901) (UniProt Q01968)

Sequences of proteins named here, by UniProt entry; tags and fusion partners are left off. Residues count along the entry.
UniProt P55258: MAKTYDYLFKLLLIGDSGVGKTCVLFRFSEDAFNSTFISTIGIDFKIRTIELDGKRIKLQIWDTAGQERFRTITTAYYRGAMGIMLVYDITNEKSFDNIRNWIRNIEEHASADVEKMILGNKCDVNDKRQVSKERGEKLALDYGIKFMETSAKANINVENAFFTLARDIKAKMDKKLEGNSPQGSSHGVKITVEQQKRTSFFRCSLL
UniProt Q01968, residues 539-901: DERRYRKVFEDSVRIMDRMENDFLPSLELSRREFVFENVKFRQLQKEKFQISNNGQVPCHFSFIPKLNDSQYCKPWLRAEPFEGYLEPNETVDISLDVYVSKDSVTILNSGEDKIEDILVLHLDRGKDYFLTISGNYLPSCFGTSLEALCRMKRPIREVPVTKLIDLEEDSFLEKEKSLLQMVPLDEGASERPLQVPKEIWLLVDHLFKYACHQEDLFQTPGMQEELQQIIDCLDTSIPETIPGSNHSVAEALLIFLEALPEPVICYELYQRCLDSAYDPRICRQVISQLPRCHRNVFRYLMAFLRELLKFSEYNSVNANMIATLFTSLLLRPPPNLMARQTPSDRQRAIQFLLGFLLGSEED
UniProt Q9JHG7: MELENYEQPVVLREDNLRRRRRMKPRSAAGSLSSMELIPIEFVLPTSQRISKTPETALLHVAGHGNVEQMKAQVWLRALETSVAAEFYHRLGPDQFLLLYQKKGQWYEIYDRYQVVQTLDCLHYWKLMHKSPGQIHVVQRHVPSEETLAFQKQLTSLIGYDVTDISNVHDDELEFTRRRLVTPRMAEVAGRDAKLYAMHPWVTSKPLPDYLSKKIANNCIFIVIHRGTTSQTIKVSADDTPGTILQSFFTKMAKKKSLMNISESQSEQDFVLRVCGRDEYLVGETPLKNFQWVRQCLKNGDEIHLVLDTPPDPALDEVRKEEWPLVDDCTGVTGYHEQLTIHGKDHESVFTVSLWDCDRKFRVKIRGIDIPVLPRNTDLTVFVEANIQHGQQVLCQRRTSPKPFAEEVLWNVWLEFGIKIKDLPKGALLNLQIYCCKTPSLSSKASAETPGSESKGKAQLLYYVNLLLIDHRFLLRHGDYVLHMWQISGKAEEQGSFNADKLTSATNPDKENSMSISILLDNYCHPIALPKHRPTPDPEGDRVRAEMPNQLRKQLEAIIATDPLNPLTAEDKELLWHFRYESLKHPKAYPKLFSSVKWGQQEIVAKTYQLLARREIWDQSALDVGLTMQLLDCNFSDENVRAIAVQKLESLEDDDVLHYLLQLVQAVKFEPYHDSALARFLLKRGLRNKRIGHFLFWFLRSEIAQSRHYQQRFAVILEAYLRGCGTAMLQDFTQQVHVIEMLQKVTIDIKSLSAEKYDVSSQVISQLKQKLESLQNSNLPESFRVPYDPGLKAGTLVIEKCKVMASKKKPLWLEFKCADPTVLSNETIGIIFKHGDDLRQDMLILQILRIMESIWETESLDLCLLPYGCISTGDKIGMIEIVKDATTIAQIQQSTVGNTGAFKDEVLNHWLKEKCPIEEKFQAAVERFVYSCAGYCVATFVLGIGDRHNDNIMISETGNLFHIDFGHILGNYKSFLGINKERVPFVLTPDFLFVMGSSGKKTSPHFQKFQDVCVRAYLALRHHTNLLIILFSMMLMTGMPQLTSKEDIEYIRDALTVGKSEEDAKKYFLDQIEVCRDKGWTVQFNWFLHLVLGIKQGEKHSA

| binding (GST-Rab8a [1]) | binding (GST-Rab8a [2]) | binding [3] | Substance |
| --- | --- | --- | --- |
| binds | binds |  | PI3Kγ (p110 catalytic subunit) (from UniProt Q9JHG7 1-1102) (enzyme) |
|  |  | binds | Rab8a (from UniProt P55258 1-207) |

From doi:10.1101/2021.02.11.430773
